Changes are numbered by the printed parent chain. These are yes or no findings as the source states them, for the method shown. Binding seen in cells or lysates may run through a third protein. A yes stands for co-enrichment or nearness to the bait. Other partners may have been found. Values belong to the binder of their own block, whether it stands above or below them.
Assays:
Experiment in all cases: affinity purification with mass spectrometry; biotinylated purified bait on streptavidin-coated magnetic beads; prey: DNA/RNA-depleted extract of B. subtilis 168; relative ion scores against a 'no bait' pulldown; only the target purified
[1] = biological target: T1, Biotinylated full length PcrA (Geobacillus stearothermophilus), wild type (Geobacillus stearothermophilus) (UniProt P56255)
T1 sequence (chain, biotin): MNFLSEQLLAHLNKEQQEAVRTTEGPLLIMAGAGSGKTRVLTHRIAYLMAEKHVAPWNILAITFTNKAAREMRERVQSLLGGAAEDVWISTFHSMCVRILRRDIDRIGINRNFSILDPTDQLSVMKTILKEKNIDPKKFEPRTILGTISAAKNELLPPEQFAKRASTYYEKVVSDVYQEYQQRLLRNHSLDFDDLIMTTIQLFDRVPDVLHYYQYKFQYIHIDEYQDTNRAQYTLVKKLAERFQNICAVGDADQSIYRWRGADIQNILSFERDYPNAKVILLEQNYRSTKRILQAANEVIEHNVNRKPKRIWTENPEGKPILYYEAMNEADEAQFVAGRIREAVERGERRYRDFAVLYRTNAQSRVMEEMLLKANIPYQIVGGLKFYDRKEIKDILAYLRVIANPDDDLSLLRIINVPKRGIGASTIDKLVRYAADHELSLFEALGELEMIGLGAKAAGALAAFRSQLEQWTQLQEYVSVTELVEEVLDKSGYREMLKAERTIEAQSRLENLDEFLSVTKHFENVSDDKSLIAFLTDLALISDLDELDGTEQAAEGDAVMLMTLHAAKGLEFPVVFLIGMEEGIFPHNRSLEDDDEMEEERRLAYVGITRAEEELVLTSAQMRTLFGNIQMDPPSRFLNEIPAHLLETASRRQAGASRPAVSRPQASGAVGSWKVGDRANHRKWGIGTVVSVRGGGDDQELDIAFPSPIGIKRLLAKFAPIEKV

[2] = biological target: T2, Biotinylated full length PcrA K712A (Geobacillus stearothermophilus) (UniProt P56255)
T2 sequence (chain, biotin): T1 sequence (chain, biotin) with K712A

[3] = biological target: T3, Biotinylated full length PcrA L714A (Geobacillus stearothermophilus) (UniProt P56255)
T3 sequence (chain, biotin): T1 sequence (chain, biotin) with L714A

binding [1]: binds
binding [2]: binds
binding [3]: binds
B1: UvrB, Bacillus subtilis (protein, UniProt P37954 1-661)
chain: MKDRFELVSKYQPQGDQPKAIEKLVKGIQEGKKHQTLLGATGTGKTFTVSNLIKEVNKPTLVIAHNKTLAGQLYSEFKEFFPNNAVEYFVSYYDYYQPEAYVPQTDTFIEKDASINDEIDKLRHSATSALFERRDVIIIASVSCIYGLGSPEEYREMVVSLRTEMEIERNELLRKLVDIQYARNDIDFQRGTFRVRGDVVEIFPASRDEHCVRVEFFGDEIERIREVDALTGEILGDRDHVAIFPASHFVTRAEKMEKAIQNIEKELEEQLKVMHENGKLLEAQRLEQRTRYDLEMMREMGFCSGIENYSRHLTLRPPGSTPYTLLDYFPDDFMIVVDESHVTIPQVRGMFNGDQARKQVLVDHGFRLPSALDNRPLRFEEFEKHMHNIVYVSATPGPYEIEHTDEMVEQIIRPTGLLDPLIDVRPIEGQIDDLIGEIQARIERNERVLVTTLTKKMSEDLTDYLKEIGIKVNYLHSEIKTLERIEIIRDLRLGKYDVLVGINLLREGLDIPEVSLVAILDADKEGFLRSERSLIQTIGRAARNAEGRVIMYADKITKSMEIAINETKRRREQQERFNEEHGITPKTINKEIRDVIRATVAAEDKAEYKTKAAPKLSKMTKKERQKVVEQMEHEMKEAAKALDFERAAELRDLLLELKAEG

binding [1]: binds
binding [2]: binds
binding [3]: binds
B2: YvgS/HelD (SF1 helicase), Bacillus subtilis (enzyme, UniProt O32215 1-774)
chain: MNQQDKEWKEEQSRIDEVLKELEKKERFLETSAGGLKHDIIGLRKSFWEDVKVNFDDAHEAIETMASIKQQAELLSDREHNHRRMDQQLKRIHQLKKSPYFGRIDFIENGEEQAERIYIGLASCLDEKEEHFLIYDWRAPISSLYYNYSPGKAEYEVPGETIEGEMVLKRQFMIKNGTLKAMFNTDMTIGDEMLQEVLSHHSDTQMKNIVSTIQKEQNQIIRNEKSKILIVQGAAGSGKTSAALQRVAYLLYRHRGVIDAGQIVLFSPNFLFNSYVSSVLPELGEENMEQATFQEYIEHRLGRKFKCESPFDQLEYCLTETKGGDFPTRLAGITWKAGLSFQQFINEYVTRLSSEGMIFKNIIFRGQKLITKEQIQSYFYSLDQNHSIPNRMEQTAKWLLSELNKLEKKERRKDWVVHEAELLDKEDYLDVYKKLQERKRFSESTFNDYQREQQLLAAIIVKKAFKPLKQAVRLLAFLDVTQLYLQLFSGWGGKFQHEKMDAIGELTRSAFTDNKLLYEDAAPFLYMQDLIEGRKKNTKIKHLFIDEAQDYSPFQMAYMRSIFPAASMTVLGDINQSIYAHTINGDQRMDACFEDEPAEYVRLKRTYRSTRQIVEFTKAMLQDGADIEPFNRSGEMPLVVKTEGHESLCQKLAQEIGRLKKKGHETIAVICKTAHQCIQAHAHMSEYTDVRLIHKENQPFQKGVCVIPVYLAKGIEFDAVLVYDASEEHYHTEHDRRLLYTACTRAMHMLAVFYTGEASPFVTAVPPHLYQIAE
